{
  "source": "the M2OR odorant receptor database",
  "note": "The list shows a part of the results. Calls are pooled over several reports, among them a noisy single-well screen.",
  "data": [
    {"tested_on": "T1, ", "T1 sequence (whole entry)": "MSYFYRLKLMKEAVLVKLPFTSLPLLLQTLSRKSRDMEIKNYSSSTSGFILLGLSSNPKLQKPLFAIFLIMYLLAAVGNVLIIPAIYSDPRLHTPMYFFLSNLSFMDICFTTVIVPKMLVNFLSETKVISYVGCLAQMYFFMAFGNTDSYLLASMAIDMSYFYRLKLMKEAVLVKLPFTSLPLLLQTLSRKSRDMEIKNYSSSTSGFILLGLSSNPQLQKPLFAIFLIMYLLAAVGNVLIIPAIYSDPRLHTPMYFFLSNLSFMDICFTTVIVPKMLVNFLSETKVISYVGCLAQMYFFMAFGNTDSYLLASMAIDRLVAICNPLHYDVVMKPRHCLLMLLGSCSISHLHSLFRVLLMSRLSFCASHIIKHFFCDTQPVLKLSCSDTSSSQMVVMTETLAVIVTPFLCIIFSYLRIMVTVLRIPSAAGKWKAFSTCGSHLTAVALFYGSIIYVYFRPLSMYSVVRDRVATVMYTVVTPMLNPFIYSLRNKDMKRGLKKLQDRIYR", "details": "stereoisomer not certain", "procedure,_shortened": "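Each entry records the cell line, G-protein, co-transfected protein and tags used. Methods varied with the source, often transient luciferase assays in mammalian cell lines. A receptor–molecule pair is called responsive (active) if the original authors judged its signal statistically different from baseline and non-responsive (inactive) otherwise.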", "values": [
      {"smiles": "c1ccc(Oc2ccccc2)cc1", "odorant receptor agonist call": "inactive"},
      {"smiles": "CC12C=CCC1C1CCC3=CC(=O)CCC3(C)C1CC2", "note": "(configuration not stated)", "odorant receptor agonist call": "inactive"},
      {"smiles": "CC1=CCC(C(C)(C)O)CC1", "note": "(configuration not stated)", "odorant receptor agonist call": "inactive"},
      {"smiles": "c1cnccn1", "odorant receptor agonist call": "inactive"},
      {"smiles": "COc1cc(C)ccc1O", "odorant receptor agonist call": "inactive"},
      {"smiles": "CC(C)CCC(=O)O", "odorant receptor agonist call": "inactive"},
      {"smiles": "CCCCCCCCOC(C)=O", "odorant receptor agonist call": "inactive"},
      {"smiles": "CC1CCC(C(C)C)C(O)C1", "note": "(configuration not stated)", "odorant receptor agonist call": "inactive"},
      {"smiles": "CCCCCCCC=CC=O", "odorant receptor agonist call": "inactive"},
      {"smiles": "CC12C=CCC1C1CCC3CC(=O)CCC3(C)C1CC2", "note": "(configuration not stated)", "odorant receptor agonist call": "inactive"},
      {"smiles": "CC=Cc1ccc(O)c(OC)c1", "odorant receptor agonist call": "inactive"},
      {"smiles": "O=C1CCCCCCCCCCCC(=O)OCCO1", "odorant receptor agonist call": "inactive"},
      {"smiles": "CCCCCCOC(=O)CCC", "odorant receptor agonist call": "inactive"},
      {"smiles": "CCC1(O)C2(C)CCC(C2)C1(C)C", "note": "(configuration not stated)", "odorant receptor agonist call": "inactive"},
      {"smiles": "CC(C)C=O", "odorant receptor agonist call": "inactive"},
      {"smiles": "C=CCc1ccc(OC(C)=O)c(OC)c1", "odorant receptor agonist call": "active"},
      {"smiles": "CC(=O)OC(C)(C)C1CC=C(C)CC1", "note": "(configuration not stated)", "odorant receptor agonist call": "inactive"},
      {"smiles": "C=CCSCC=C", "odorant receptor agonist call": "inactive"},
      {"smiles": "CCCC(=O)O", "odorant receptor agonist call": "inactive"},
      {"smiles": "CCCCCCCOC(C)=O", "odorant receptor agonist call": "inactive"},
      {"smiles": "CC(C)C(=O)O", "odorant receptor agonist call": "inactive"},
      {"smiles": "CC(=O)OCC=C(C)CCC=C(C)C", "odorant receptor agonist call": "inactive"},
      {"smiles": "CCC=CCCO", "odorant receptor agonist call": "inactive"},
      {"smiles": "CC1=NC(C)SC1C", "note": "(configuration not stated)", "odorant receptor agonist call": "inactive"},
      {"smiles": "CC(C)(C)c1ccc(CCC=O)cc1", "odorant receptor agonist call": "inactive"},
      {"smiles": "COC(=O)c1ccccc1", "odorant receptor agonist call": "inactive"},
      {"smiles": "O=CCc1ccccc1", "odorant receptor agonist call": "inactive"}
    ]}
  ]
}
